The exact form of at least one protein or probe is not confirmed. For some assays here: Negatives hold for the conditions tested. For some assays here: At least one verdict rests on a figure or table, not on a statement of the authors. For some assays here: The direction of at least one scale is not stated here.
Legend:
Experiment in all cases: EMSA
[1] = molecular target: ALX4 HD (UniProt O35137); conditions: residues 197-262
[2] = molecular target: ALX4 R216G R204G (UniProt O35137); conditions: reduced cooperativity
[3] = molecular target: ALX4 R272P R260P (UniProt O35137); conditions: no substantial reduction in cooperativity
[4] = molecular target: ALX4 R218Q R206Q (UniProt O35137)
[5] = molecular target: ALX4 V241R V229R (UniProt O35137); conditions: cooperativity abolished, second-site binding hindered
[6] = molecular target: ALX4 R215A R203A (UniProt O35137); conditions: reduced cooperativity
[7] = molecular target: ALX4 R216A R204A (UniProt O35137); conditions: reduced cooperativity
[8] = molecular target: ALX4 Q225E Q213E (UniProt O35137); conditions: reduced cooperativity
[9] = molecular target: ALX4 WT (ITC, mutant-series EMSA) (UniProt O35137); conditions: cooperative reference for variants
[10] = molecular target: ALX4 K211E K199E (UniProt O35137); conditions: no substantial reduction in cooperativity

The chains behind the UniProt entries cited, without tags or fusion partners. Residues count along the entry.
UniProt O35137, 197-262: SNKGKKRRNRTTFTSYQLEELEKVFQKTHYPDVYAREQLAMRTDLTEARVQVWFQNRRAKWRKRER
UniProt O35137, 158-291 R204G: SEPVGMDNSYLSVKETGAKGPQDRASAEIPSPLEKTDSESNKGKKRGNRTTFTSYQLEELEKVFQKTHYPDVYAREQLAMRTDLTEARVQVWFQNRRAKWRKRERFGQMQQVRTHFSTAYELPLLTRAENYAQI
UniProt O35137, 158-291 R260P: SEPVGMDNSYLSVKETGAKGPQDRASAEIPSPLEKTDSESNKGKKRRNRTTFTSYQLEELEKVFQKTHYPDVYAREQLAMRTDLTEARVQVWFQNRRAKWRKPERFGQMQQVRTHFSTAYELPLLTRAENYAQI
UniProt O35137, 158-291 R206Q: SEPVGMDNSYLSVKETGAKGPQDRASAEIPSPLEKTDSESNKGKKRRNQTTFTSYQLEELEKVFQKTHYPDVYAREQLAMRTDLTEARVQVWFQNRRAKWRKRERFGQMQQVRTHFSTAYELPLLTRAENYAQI
UniProt O35137, 158-291 V229R: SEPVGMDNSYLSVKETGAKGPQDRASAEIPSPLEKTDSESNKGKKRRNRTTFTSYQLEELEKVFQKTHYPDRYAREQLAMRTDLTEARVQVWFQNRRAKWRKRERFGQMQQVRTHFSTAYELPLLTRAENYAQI
UniProt O35137, 158-291 R203A: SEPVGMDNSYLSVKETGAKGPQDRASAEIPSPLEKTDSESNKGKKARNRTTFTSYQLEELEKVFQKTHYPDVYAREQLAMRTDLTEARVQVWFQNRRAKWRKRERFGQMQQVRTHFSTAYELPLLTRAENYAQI
UniProt O35137, 158-291 R204A: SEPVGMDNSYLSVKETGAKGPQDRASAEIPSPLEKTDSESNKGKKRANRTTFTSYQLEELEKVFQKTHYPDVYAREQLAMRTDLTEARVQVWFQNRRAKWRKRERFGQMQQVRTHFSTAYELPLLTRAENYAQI
UniProt O35137, 158-291 Q213E: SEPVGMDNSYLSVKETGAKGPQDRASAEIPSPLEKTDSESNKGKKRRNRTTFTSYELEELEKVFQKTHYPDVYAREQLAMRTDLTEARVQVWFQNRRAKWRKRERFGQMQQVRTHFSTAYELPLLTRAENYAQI
UniProt O35137, 158-291, stated change not applied: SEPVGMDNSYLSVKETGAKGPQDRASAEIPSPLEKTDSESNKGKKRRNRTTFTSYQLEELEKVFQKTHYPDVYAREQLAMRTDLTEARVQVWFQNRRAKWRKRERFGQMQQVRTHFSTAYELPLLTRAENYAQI
UniProt O35137, 158-291 K199E: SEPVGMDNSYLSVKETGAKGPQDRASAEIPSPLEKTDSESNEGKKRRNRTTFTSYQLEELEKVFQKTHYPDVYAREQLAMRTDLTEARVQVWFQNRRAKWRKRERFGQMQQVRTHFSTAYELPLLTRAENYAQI

Row | Sequence | binding signal (Tau (cooperativity factor)) ([1]; no preferential dimer binding) | binding signal (fold reduction in Tau vs WT) [2] | binding signal (Tau (cooperativity factor)) [1] | binding result [3] | binding result [4] | binding signal (Tau (cooperativity factor)) [5] | binding signal (fold reduction in Tau vs WT) [6] | binding signal (fold reduction in Tau vs WT) [7] | binding signal (fold reduction in Tau vs WT) [8] | binding result [9] | binding result [10]
1 | TGTGTCTTAATTAGGATTAACGCACTTGATAGTGCGGGCGTGGCT (double strand) [P4 site EMSA probe] | 1.5 | – | – | – | – | – | – | – | – | – | –
2 | TGTGTCTTAATTAGATTAACGCACTTGATAGTGCGGGCGTGGCT (double strand) [P3 site EMSA probe] | – | 10 | 110 | binds | no binding | 0.327 | 5 | 10 | 2 | binds | binds
